# The exact form of at least one protein or probe is not confirmed. For some of these results: Negatives hold for the conditions tested. Protein sequences can lack the tags named with them.
# How the values were obtained:
# Assay in all cases: activity assay
# MG153-35 = test system: T1, MG153-35; details: primer extension gel; 3 mM MgCl2, 37 C; protein translated in vitro; protein details: N-terminal Strep; label: 5'-FAM primer; DNA:RNA hybrid
# T1 sequence (limits assumed): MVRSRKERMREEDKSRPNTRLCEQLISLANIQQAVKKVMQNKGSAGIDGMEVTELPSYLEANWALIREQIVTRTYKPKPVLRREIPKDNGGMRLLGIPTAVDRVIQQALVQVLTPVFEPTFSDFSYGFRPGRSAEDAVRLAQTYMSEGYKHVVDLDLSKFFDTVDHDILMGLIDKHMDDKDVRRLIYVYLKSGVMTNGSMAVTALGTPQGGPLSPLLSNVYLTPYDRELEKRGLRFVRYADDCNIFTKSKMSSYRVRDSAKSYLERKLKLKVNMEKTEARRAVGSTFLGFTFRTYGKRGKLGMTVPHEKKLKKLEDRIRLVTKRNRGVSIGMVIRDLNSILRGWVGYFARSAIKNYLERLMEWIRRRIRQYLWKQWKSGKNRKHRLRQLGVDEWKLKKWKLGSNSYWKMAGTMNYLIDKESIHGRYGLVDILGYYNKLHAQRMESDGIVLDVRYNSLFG
# MG153-18 = test system: T2, MG153-18; details: primer extension gel; 3 mM MgCl2, 37 C; protein translated in vitro; protein details: N-terminal Strep; label: 5'-FAM primer; DNA:RNA hybrid
# T2 sequence (limits assumed): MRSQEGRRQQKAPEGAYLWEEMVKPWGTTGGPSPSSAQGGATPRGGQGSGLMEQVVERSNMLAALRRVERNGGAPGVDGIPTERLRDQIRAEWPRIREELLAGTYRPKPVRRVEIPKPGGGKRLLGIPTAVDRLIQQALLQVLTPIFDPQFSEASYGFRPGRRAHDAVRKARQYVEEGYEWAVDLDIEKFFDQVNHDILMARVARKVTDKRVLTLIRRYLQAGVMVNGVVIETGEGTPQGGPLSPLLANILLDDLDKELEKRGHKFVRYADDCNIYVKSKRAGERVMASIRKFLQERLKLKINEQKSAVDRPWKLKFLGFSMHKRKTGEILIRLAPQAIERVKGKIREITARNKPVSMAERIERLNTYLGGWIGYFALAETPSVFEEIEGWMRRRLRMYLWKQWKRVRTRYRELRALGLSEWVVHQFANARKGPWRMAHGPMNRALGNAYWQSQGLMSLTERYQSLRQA
# MG153-4 = test system: T3, MG153-4; details: primer extension gel; 3 mM MgCl2, 37 C; protein translated in vitro; protein details: N-terminal Strep; label: 5'-FAM primer; DNA:RNA hybrid
# T3 sequence (limits assumed): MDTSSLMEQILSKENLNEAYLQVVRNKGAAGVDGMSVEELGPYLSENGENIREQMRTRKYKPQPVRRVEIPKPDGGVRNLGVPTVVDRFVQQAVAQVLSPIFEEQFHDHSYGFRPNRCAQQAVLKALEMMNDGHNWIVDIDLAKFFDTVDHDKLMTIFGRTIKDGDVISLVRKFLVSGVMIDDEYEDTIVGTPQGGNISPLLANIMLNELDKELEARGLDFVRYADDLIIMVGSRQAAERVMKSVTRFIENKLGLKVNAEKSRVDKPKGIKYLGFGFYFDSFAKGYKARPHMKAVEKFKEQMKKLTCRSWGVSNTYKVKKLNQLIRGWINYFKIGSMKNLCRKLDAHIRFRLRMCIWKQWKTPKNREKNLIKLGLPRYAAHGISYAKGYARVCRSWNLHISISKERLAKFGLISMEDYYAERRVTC
# MG158-1 = test system: T4, MG158-1; details: tested, not listed as active; protein translated in vitro; protein details: N-terminal Strep; label: 5'-FAM primer; DNA:RNA hybrid
# T4 sequence (limits assumed): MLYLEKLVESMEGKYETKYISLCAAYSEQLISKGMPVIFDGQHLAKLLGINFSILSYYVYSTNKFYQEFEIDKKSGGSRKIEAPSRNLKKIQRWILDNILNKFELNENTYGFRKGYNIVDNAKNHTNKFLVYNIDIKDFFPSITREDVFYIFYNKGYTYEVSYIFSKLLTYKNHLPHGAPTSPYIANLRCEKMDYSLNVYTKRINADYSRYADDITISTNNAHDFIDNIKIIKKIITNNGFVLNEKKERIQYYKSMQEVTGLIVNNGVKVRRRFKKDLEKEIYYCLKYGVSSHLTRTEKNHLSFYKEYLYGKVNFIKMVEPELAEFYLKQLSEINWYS
# MG157-5 = test system: T5, MG157-5; details: primer extension on general RNA; protein translated in vitro; protein details: N-terminal Strep; label: 5'-FAM primer; DNA:RNA hybrid
# T5 sequence: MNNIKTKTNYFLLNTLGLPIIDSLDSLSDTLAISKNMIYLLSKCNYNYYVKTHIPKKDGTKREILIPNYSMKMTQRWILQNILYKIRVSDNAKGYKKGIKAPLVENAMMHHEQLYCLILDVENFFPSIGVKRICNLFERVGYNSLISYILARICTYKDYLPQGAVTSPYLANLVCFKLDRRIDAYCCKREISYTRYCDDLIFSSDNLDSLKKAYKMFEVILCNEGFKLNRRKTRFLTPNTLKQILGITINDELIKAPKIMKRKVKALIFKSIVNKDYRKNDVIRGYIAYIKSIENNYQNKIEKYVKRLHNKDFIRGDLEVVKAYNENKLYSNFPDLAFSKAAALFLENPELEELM
# MG153-36 = test system: T6, MG153-36; details: primer extension gel; 3 mM MgCl2, 37 C; protein translated in vitro; protein details: N-terminal Strep; label: 5'-FAM primer; DNA:RNA hybrid
# T6 sequence (limits assumed): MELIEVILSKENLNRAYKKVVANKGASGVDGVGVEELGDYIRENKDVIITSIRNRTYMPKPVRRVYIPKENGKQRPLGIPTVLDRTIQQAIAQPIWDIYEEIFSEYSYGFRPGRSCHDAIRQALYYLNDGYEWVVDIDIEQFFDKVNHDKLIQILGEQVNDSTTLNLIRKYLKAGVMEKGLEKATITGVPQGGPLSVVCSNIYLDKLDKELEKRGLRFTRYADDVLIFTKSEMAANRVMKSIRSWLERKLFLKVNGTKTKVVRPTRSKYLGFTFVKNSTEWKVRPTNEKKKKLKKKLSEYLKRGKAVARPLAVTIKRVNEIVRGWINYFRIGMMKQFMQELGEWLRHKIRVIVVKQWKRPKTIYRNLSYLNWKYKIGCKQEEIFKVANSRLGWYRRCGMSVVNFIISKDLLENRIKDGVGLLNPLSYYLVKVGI
# MG155-3 = test system: T7, MG155-3; details: primer extension on general RNA; protein translated in vitro; protein details: N-terminal Strep; label: 5'-FAM primer; DNA:RNA hybrid
# T7 sequence: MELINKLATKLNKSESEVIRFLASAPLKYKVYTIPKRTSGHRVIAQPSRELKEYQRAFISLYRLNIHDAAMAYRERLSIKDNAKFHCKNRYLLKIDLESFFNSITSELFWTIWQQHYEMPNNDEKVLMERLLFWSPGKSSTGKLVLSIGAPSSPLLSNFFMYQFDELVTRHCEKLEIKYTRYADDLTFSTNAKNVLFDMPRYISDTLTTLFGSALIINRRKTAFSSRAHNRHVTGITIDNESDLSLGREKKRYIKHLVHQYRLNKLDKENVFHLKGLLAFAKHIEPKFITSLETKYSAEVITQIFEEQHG
sequence,measurement,setting,value
GGCAAACCGCCTCTCCCCGCGCGTTGGCCGATTCATTAATGCAGCTGGCACGACAGGTTTCCCGACTGGAAAGGAGACCCGGGCAGTGAGCGCAACGGGTCTCCAATTTAAGCCAGCCCCGACACCCGCCAACACCCGCTGACGCGCCCTGACGGGCTTGTCTGCTCCCGGCATCCGCTTACAGACAAGCTGTGACCGTCTC / GAGACGGTCACAGCTTGTCTG [202-nt RNA template annealed to DNA primer],activity on this sequence,MG153-35,active
same,activity on this sequence,MG153-18,active
same,activity on this sequence,MG153-4,active
same,activity on this sequence,MG158-1,not active
same,activity on this sequence,MG157-5,active
same,activity on this sequence,MG153-36,active
same,activity on this sequence,MG155-3,active
